The record followed here is article PMC7819943, “Rice protein-binding microarrays: a tool to detect cis-acting elements near promoter regions in rice”.

This is one part of the list.

This assay addresses T1, OsSMF1 (Oryza sativa, UniProt Q6ZLB0 1-436).
T1 sequence: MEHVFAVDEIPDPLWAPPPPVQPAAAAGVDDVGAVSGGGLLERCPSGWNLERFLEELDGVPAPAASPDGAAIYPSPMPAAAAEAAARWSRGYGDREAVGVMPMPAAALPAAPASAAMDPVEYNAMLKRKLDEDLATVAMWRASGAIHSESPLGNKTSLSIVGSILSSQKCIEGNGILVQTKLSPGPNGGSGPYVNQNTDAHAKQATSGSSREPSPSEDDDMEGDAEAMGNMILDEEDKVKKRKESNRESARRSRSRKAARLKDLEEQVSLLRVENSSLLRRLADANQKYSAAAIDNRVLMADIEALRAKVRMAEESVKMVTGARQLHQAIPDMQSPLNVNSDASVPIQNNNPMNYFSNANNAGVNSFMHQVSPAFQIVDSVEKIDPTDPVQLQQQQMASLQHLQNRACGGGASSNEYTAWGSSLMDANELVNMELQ
Description: protein-binding microarray (RPBM); PBS, 2% BSA, 51.3 ng/ul salmon testes DNA, 50 uM zinc acetate, 200 nM TF, 25 C, 1 h; high values mean tight binding. As to conditions: protein: recombinant; tags: N-terminal polyhistidine and DsRed monomer fusion (pET32a); chain copies: 2; label: CyDye5-dUTP incorporated in the synthesized complementary strand; 3' TTTTT single-stranded linker to array surface; dsDNA, one strand shown. The gist of the method:
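The binding signal for each feature is its fluorescence intensity in arbitrary units. An Axon 4000B scanner was used to read a custom Agilent array that had been made double-stranded with Cy5-dUTP primer extension, blocked with 2% BSA, incubated at 25 °C for 1 h with 200 nM protein in PBS, 2% BSA, salmon testes DNA and 50 µM zinc acetate, and washed. The protein was an N-terminal polyhistidine–DsRed transcription factor fusion from E. coli BL21-CodonPlus, purified on Ni–NTA.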
Regarding “AGTTGATTATGAGTCTTGTGACTTGTGGGGTTGTTTTGGTCGGAGTCACCTAGTGCAG”, the binding signal was 4040 fluorescence intensity (a.u.).
The same measure for “GTACGGTCACGACTCATGACACAGTACTCCTAGTCAAACCCGGAGTCACCTAGTGCAG”: 4140 fluorescence intensity (a.u.); for “GAACCTCTCGTAGCCTCACATCTCGTCATTCCTCCCTCCTCGGAGTCACCTAGTGCAG”: 5220 fluorescence intensity (a.u.); for “AATACTTTATGCAGGTGTTCAAATGTTCGATGTGACAGGGCGGAGTCACCTAGTGCAG”: 3150 fluorescence intensity (a.u.).
For “ACAGGAAAATCTATTTTCGTGTGCGCGTCATTTAACAGGTCGGAGTCACCTAGTGCAG” the value was 3230 fluorescence intensity (a.u.).
Regarding “AAAACCGTTTCCAAAACCATTTAGGGAGTCAATTTGCATTCGGAGTCACCTAGTGCAG”, the binding signal is 3210 fluorescence intensity (a.u.).
The same measure for “TAAATTGTATATACGTATACAACATATACATGTATGTAGTCGGAGTCACCTAGTGCAG”: 32900 fluorescence intensity (a.u.); for “CTATACTATTAATATATGGTCTCATCTGTCATACATATATCGGAGTCACCTAGTGCAG”: 3830 fluorescence intensity (a.u.).
Regarding “AGCCCACAAGCATGCATGCCACACTAGCTTAGCTGTCTCACGGAGTCACCTAGTGCAG”, the binding signal is 3710 fluorescence intensity (a.u.).
Take “GGCGGACGCGGACGCGGGAGTGCGTGACGACGACGAGTCGCGGAGTCACCTAGTGCAG”: the binding signal is 4070 fluorescence intensity (a.u.).
“ATTGGATACATGTCATTGTAAGTTTGTAACTCTACCAGTTCGGAGTCACCTAGTGCAG”: the binding signal is 4300 fluorescence intensity (a.u.).
The same measure for “GACCACCCCACTCCGCGCCACTGTCCACGTCTGCATAGTCCGGAGTCACCTAGTGCAG”: 17600 fluorescence intensity (a.u.); for “CGTATAGTTACAGTCGATCGAGGTGGTCAGTGAGACACAGCGGAGTCACCTAGTGCAG”: 30200 fluorescence intensity (a.u.); for “CCACCACCACCACCACCACCGCGCCCGACAACCACTTCTCCGGAGTCACCTAGTGCAG”: 3340 fluorescence intensity (a.u.).
For “CACACACACACACACACACACACACACACACACACACACTCGGAGTCACCTAGTGCAG” the value was 6190 fluorescence intensity (a.u.); for “TTTTGAACGTCATGCACACAACTAGAGTATGTCCCATCGGCGGAGTCACCTAGTGCAG”, 3860 fluorescence intensity (a.u.).
The same measure for “TCATGGAGGTCCAGCTCATTCTCCATGTGTGGTCCTAGAGCGGAGTCACCTAGTGCAG”: 5740 fluorescence intensity (a.u.).
For “TGGCGCGGTCAGCGGCGCACGGGATGACGCGGAGCACGAGCGGAGTCACCTAGTGCAG”, the binding signal was 3410 fluorescence intensity (a.u.).
“AGCATTAGCAGCTAAGCCTAACAGTGGATTATGTCACGTTCGGAGTCACCTAGTGCAG”: the binding signal is 3350 fluorescence intensity (a.u.).
For “ATCCGTGCTACCTCATCATATATTCACCAACATTAGGATACGGAGTCACCTAGTGCAG” the value was 4250 fluorescence intensity (a.u.).
The same measure for “TGAGCACCTCATCCACGCGTCATGCATCTGTGTCGGGGCTCGGAGTCACCTAGTGCAG”: 45200 fluorescence intensity (a.u.); for “AACAAATACCCTCGTGGTTGGGCTGACTGTGCATCCGTTGCGGAGTCACCTAGTGCAG”: 8090 fluorescence intensity (a.u.); for “CAATCATATAGTAGATGAACACGAATATAGGGAGGGGCATCGGAGTCACCTAGTGCAG”: 21500 fluorescence intensity (a.u.).
For “TGGACAAAGTTATTAGTTGTACTAGGAGGGGTCACATGTTCGGAGTCACCTAGTGCAG”, the binding signal was 3180 fluorescence intensity (a.u.).
For “CGCGTTGCCCACGTCGTACCTCGTCCCGATCTTCACCATGCGGAGTCACCTAGTGCAG” the value was 3450 fluorescence intensity (a.u.).
The same measure for “GCATGGCAGTATAATTGTCTTGTCACCCAATTAATATTGCCGGAGTCACCTAGTGCAG”: 4580 fluorescence intensity (a.u.); for “CGCTCGCGTCGCGTCCGCCTGACGAGGAAGCTACAACCATCGGAGTCACCTAGTGCAG”: 3690 fluorescence intensity (a.u.); for “AACAGATCTGTCCTATTTGCCTTACCACCCCATTTGTGCGCGGAGTCACCTAGTGCAG”: 3660 fluorescence intensity (a.u.).
Regarding “AATCCGCCGCCTCCCCAAAATCACGCGAGGCGCCGGCGAACGGAGTCACCTAGTGCAG”, the binding signal is 38300 fluorescence intensity (a.u.).
The same measure for “CGGGCACTGGCTCAGCGACACTGACACGCCCGGGCCCACCCGGAGTCACCTAGTGCAG”: 3920 fluorescence intensity (a.u.); for “TGTGACCCATTCTAATACAATAAATCTGGACATGTGTACTCGGAGTCACCTAGTGCAG”: 3630 fluorescence intensity (a.u.).
The same measure for “CGAATAGTAACAGTAGTAATGACATGTATCCAATTCACCTCGGAGTCACCTAGTGCAG”: 4450 fluorescence intensity (a.u.).
Regarding “TTGCTCGGGGCGATTGGGCCATGCGAGGTGCGGGATTTGACGGAGTCACCTAGTGCAG”, the binding signal was 6040 fluorescence intensity (a.u.).
Turning to “AAGCCTCTCCGTGAACCAACACCCATAGACCATTGTGACTCGGAGTCACCTAGTGCAG”, the binding signal was 22400 fluorescence intensity (a.u.).
The same measure for “AAAATGTCACAAGTTTGGGCAGCCATGTCATGCACACATGCGGAGTCACCTAGTGCAG”: 4590 fluorescence intensity (a.u.).
For the sequence “CCTGCACCCCGATATCATGGTCCGTATCAGCCAGGGTTTACGGAGTCACCTAGTGCAG”, the binding signal was 3330 fluorescence intensity (a.u.).
The same measure for “GCGATCTGAAGTTCTGACTCATAGTCGACAACAGGGTAGCCGGAGTCACCTAGTGCAG”: 3220 fluorescence intensity (a.u.); for “GAAGAATTTGGATCCAACGTCCCAGATCAGCGCGCGTCCCCGGAGTCACCTAGTGCAG”: 4230 fluorescence intensity (a.u.); for “CAAGACACCAGCAAACGTAGGAGTGCTACGTGTGTACTCCCGGAGTCACCTAGTGCAG”: 5040 fluorescence intensity (a.u.).
For “ATCTCACGGTAATCATACGGTTTTCACGATAATTATGTGGCGGAGTCACCTAGTGCAG” the value was 3170 fluorescence intensity (a.u.); for “CGATGCCCATGGGTATGACGCGCCAACCTAACAAGTGCTCCGGAGTCACCTAGTGCAG”, 3580 fluorescence intensity (a.u.).
Regarding “ATGTGACTGAAAAGTTGTGTGTGTATGACAGGTTGATGTGCGGAGTCACCTAGTGCAG”, the binding signal is 3800 fluorescence intensity (a.u.).
